Experimental data: patent US20130072527A1, “METHODS OF USING SUSTAINED RELEASE AMINOPYRIDINE COMPOSITIONS” (Acorda Therapeutics, Inc., priority 2008, published 2013)
At least one read-out could not be matched to a standard name with certainty.

Test: 14C-4-aminopyridine single oral dose in rats (HWI 6379-101)
Conditions: 1 mg/kg single oral
Description: Studies were performed in rats and dogs using ^14C-labeled 4-aminopyridine (1 mg/kg) given as a single oral gavage dose in solution.
In a single-dose study, rats were administered ^14C-labeled 4-aminopyridine (1 mg/kg) p.o. Three animals per time point were sacrificed 1, 3, 8, and 24 hours post-dose. Blood was collected and tissues were excised for determination of radioactivity.

Substance: ^14C-4-Aminopyridine
- Cmax (females): 0.168 ± 0.0157 µg/g
- Cmax (males): 0.189 ± 0.0202 µg/g
